Measured data: PubChem BioAssay AID1224830 (NIAID, 2016)
In all, the deposit lists about 18,000 reagents; shown is a part drawn at random. About 2,900 of all reagents (16%) were called active. 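Calls are made per well; low scores hint the gene aids the LPS response, high scores that it dampens it.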 Repeated entries: four replicate wells of each siRNA pool.

Test: 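Regulators of TLR4 signalling towards TNF-alpha in macrophage-like cells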 (primary screen)
Cells: human THP-1 monocytic leukaemia cells, TNF dual-luciferase reporter clone, PMA-differentiated to macrophage-like cells
Reagents: siRNA pool against human genes, 50 nM
Duration: LPS for 4 h, given about 3 days after siRNA transfection
Treatment: bacterial LPS (TLR4 ligand), 10 ng/ml
Measurement: 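Ratio of firefly to renilla light, scaled to the plate median and expressed as a robust z-score per replicate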
Direction: TNF reporter robust z-score: higher = stronger TNF reporter response to LPS
Active means: 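a well is active when its z-score exceeds 2.8 or falls below -1.5; control wells carry no call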

SLC6A18 — TNF reporter robust z-score: -0.63; activity call: inactive
SLC6A18 — TNF reporter robust z-score: -0.25; activity call: inactive
SLC6A18 — TNF reporter robust z-score: -1.09; activity call: inactive
SLC6A18 — TNF reporter robust z-score: -0.27; activity call: inactive
CASP9 — TNF reporter robust z-score: 2.21; activity call: inactive
CASP9 — TNF reporter robust z-score: 0.22; activity call: inactive
CASP9 — TNF reporter robust z-score: 1.63; activity call: inactive
CASP9 — TNF reporter robust z-score: 3.56; activity call: active
BTBD6 — TNF reporter robust z-score: 0.38; activity call: inactive
BTBD6 — TNF reporter robust z-score: -0.94; activity call: inactive
BTBD6 — TNF reporter robust z-score: 0.01; activity call: inactive
BTBD6 — TNF reporter robust z-score: -1.33; activity call: inactive
NDP — TNF reporter robust z-score: 1.6; activity call: inactive
NDP — TNF reporter robust z-score: 1.75; activity call: inactive
NDP — TNF reporter robust z-score: 1.41; activity call: inactive
NDP — TNF reporter robust z-score: 1.92; activity call: inactive
BRINP1 — TNF reporter robust z-score: 0.6; activity call: inactive
BRINP1 — TNF reporter robust z-score: 0.35; activity call: inactive
BRINP1 — TNF reporter robust z-score: -0.5; activity call: inactive
BRINP1 — TNF reporter robust z-score: 0.46; activity call: inactive

A run of entries from the list above, for reference:
CASP9 — TNF reporter robust z-score: 2.21; activity call: inactive
CASP9 — TNF reporter robust z-score: 0.22; activity call: inactive
